The assay addresses KIF13B, a kinesin protein (mouse (endogenous in primary keratinocytes)) (UniProt E9Q4K7). As to the kind of experiment: co-IP; anti-KIF13B antibody (or anti-IgG antibody) on protein A-G magnetic beads, 4°C overnight; cell lysates (1 mg of protein) of SLIGRL-treated primary keratinocytes of WT or Par2-/- mice, room temperature 2 hours; blot with anti-P115 antibody.

Sequences of proteins named here, by UniProt entry; tags and fusion partners are left off.
UniProt E9Q4K7: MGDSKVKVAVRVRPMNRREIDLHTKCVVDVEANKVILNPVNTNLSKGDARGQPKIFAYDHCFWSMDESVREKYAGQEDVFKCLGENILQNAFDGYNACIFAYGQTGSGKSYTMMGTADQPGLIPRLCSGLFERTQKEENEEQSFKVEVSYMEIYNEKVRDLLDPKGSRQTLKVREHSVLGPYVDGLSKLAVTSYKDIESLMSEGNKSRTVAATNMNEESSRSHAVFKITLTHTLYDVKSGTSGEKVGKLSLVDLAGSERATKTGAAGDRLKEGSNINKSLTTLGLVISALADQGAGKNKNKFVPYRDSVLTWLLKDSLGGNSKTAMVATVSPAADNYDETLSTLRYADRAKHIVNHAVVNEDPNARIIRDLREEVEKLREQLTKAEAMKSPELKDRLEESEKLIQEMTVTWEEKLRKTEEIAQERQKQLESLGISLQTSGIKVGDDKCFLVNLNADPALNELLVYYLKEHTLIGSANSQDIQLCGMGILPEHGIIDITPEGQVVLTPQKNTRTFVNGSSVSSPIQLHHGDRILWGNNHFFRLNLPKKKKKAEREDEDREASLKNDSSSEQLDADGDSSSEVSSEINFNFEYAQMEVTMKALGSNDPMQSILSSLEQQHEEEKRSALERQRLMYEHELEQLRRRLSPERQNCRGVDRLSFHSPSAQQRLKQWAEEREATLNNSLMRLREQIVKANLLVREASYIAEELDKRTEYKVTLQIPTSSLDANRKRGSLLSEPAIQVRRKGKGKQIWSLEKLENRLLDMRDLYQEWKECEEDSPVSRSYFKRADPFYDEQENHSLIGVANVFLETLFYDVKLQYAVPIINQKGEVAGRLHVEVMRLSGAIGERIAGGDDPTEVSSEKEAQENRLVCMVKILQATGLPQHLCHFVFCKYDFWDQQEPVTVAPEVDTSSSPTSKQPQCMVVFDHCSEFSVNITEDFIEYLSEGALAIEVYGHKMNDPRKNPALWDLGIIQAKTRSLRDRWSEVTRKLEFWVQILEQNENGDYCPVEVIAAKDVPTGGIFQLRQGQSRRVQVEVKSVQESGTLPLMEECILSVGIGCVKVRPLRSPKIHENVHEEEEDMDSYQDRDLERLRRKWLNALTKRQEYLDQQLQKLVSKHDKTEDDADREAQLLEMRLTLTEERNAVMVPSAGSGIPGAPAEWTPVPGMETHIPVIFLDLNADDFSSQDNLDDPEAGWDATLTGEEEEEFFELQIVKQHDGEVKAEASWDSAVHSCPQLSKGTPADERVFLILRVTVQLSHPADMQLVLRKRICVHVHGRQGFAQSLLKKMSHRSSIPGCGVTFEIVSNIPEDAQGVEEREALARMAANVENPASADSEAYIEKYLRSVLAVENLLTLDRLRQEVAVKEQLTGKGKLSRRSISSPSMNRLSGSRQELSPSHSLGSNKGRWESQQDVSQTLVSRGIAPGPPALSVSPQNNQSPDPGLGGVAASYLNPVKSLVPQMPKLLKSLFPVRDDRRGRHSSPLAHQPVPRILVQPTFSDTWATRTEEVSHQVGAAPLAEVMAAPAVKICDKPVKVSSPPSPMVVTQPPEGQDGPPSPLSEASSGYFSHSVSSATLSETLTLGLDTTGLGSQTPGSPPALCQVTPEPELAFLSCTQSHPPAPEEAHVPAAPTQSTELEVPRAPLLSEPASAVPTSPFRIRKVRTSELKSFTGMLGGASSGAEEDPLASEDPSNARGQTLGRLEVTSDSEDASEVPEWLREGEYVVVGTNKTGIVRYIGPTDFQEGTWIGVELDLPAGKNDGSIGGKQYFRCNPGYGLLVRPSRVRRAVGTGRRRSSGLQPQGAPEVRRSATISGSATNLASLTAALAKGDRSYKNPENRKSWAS

These are yes or no findings as the source states them, for the method shown. In cells and extracts the contact can be indirect. Some results given as binding are weak or reduced against the parent protein; the word gives no strength.

B1: Golgi vesicle transporter protein P115 (protein, UniProt Q9Z1Z0 1-959)
chain: MNFLRGVMGGQSAGPQHTEAETIQKLCDRVASSTLLDDRRNAVRALKSLSKKYRLEVGIQAMEHLIHVLQTDRSDSEIIAYALDTLYNIISNDEEEELEENSTRQSEDLGSQFTEIFIKQPENVTLLLSLLEEFDFHVRWPGVRLLTSLLKQLGPPVQQIILVSPMGVSRLMDLLADSREIIRNDGVLLLQALTRSNGAIQKIVAFENAFERLLDIITEEGNSDGGIVVEDCLILLQNLLKTNNSNQNFFKEGSYIQRMKPWFEVGEENSGWSAQKVTNLHLMLQLVRVLVSPTNPPGATSSCQKAMFQCGLLQQLCTILMATGIPADILTETINTVSEVIRGCQVNQDYFASVNAPSNPPRPAIVVLLMSMVNERQPFVLRCAVLYCFQCFLYKNEKGQGEIVATLLPSTIDATGNSVSAGQLLCGGLFSTDSLSNWCAAVALAHALQGNATQKEQLLRVQLATSIGNPPVSLLQQCTNILSQGSKIQTRVGLLMLLCTWLSNCPIAVTHFLHNSANVPFLTGQIAENLGEEEQLVQGLCALLLGISIYFNDNSLENYTKEKLKQLIEKRIGKENFIEKLGFISKHELYSRASQKPQPNFPSPEYMIFDHEFTKLVKELEGVITKAIYKSSEEDKKEEEVKKTLEQHDNIVTHYKNMIREQDLQLEELKQQVSTLKCQNEQLQTAVTQQASQIQQHKDQYNLLKVQLGKDNHHQGSHGDGAQVNGIQPEEISRLREEIEELKSQQALLQGQLAEKDSLIENLKSSQASGMSEQASATCPPRDPEQVAELKQELTALKSQLCSQSLEITRLQTENCELLQRAETLAKSVPVEGESEHVSAAKTTDVEGRLSALLQETKELKNEIKALSEERTAIQKQLDSSNSTIAILQTEKDKLDLEVTDSKKEQDDLLVLLADQDQKILSLKSKLKDLGHPVEEEDESGDQEDDDDEIDDGDKDQDI
Turning to B1, the binding result is given as “binds”.

Source of the values: article PMC11479884.
